Here are results for 1 molecule from US20080241274A1 (ZIOPHARM Oncology, Inc., priority 2006, published 2008).

As a reminder, the IC50 is the concentration that gives 50% inhibition.

The assay deals with MCF-7 ER-positive breast cancer. In words: Monolayer assay (DNA content by propidium iodide), single agents and indibulin combinations, MCF-7. In kind it is cell-based, human. The procedure:
The monolayer assay determines the in vitro antitumor activity of test compounds and their capacity to inhibit survival and proliferation of established tumor cell lines. These effects can be determined by establishing the number of viable cells based on measuring the DNA content using propidium iodide. […] Between 5,000 and 10,000 cells were seeded in 96 well plates on Day 0 and the compounds were added 1 day later and incubated for 4 days. The activity was assessed by their IC50 and IC70 values.
Growth IC50 and IC70 values (Table 2) were determined using XLfit software package, and used to set the concentration ranges and drug ratios for the synergy detection part of the study.
Chou-Talalay median effect method was used to quantitatively characterize drug-drug interaction [Chou T. C. […] Test agents were applied to cells at the same time at a constant, equipotent ratio, based on the previously determined respective single agent IC50s (e.g. if IC50(drug A)=0.2 μM and IC50(drug B)=10 μM the ratio is set to 1:50). […] Additionally, single agent dose response was determined for the same concentration ranges as used for combination study.
The coefficient of interaction (CI(IC50)) at IC50 and coefficient of interaction under optimal experimental concentrations (CI(e)) were determined using CalcuSyn software package (Table 3, tests were performed in quadruplicate, mean values reported). […]

Regarding `CC/C(=C(\c1ccccc1)c1ccc(OCCN(C)C)cc1)c1ccccc1` [Tamoxifen], the IC50 (Homo sapiens, MCF7, MCF7, single agent (combination study)) turned out to be 1.57 µg/mL. For the same molecule, the “Combination IC50” value (MCF7, indibulin + tamoxifen (tamoxifen:indibulin 100:1), concentration of the named drug in the combination) is 0.376 µg/mL.
